The values that follow come from the supplement of paper PMC10849652.

By UniProt entry, the sequences of proteins in these tests, tags left out. Where a name states a change or a piece, a line headed by the entry shows the natural chain unless it says otherwise.
UniProt Q96RL1: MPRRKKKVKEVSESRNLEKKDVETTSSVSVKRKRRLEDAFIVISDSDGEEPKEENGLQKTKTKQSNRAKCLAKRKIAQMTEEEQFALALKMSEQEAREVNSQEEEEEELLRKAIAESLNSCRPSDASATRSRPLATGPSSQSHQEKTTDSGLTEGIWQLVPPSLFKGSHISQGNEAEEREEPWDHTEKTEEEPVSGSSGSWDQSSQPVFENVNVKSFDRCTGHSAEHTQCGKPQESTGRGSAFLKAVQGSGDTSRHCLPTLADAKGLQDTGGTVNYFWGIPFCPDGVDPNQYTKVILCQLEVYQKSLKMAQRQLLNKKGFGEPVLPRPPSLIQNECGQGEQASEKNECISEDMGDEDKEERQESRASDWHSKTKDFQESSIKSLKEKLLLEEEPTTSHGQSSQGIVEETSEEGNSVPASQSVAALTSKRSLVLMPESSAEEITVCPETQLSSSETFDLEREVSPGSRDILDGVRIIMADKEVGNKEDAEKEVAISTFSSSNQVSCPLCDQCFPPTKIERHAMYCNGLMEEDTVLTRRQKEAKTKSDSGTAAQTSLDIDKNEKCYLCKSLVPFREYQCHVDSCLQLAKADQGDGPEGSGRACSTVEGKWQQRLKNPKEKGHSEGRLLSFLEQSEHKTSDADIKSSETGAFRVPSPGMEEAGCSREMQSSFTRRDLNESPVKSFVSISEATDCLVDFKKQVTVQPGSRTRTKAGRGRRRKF
UniProt P40818: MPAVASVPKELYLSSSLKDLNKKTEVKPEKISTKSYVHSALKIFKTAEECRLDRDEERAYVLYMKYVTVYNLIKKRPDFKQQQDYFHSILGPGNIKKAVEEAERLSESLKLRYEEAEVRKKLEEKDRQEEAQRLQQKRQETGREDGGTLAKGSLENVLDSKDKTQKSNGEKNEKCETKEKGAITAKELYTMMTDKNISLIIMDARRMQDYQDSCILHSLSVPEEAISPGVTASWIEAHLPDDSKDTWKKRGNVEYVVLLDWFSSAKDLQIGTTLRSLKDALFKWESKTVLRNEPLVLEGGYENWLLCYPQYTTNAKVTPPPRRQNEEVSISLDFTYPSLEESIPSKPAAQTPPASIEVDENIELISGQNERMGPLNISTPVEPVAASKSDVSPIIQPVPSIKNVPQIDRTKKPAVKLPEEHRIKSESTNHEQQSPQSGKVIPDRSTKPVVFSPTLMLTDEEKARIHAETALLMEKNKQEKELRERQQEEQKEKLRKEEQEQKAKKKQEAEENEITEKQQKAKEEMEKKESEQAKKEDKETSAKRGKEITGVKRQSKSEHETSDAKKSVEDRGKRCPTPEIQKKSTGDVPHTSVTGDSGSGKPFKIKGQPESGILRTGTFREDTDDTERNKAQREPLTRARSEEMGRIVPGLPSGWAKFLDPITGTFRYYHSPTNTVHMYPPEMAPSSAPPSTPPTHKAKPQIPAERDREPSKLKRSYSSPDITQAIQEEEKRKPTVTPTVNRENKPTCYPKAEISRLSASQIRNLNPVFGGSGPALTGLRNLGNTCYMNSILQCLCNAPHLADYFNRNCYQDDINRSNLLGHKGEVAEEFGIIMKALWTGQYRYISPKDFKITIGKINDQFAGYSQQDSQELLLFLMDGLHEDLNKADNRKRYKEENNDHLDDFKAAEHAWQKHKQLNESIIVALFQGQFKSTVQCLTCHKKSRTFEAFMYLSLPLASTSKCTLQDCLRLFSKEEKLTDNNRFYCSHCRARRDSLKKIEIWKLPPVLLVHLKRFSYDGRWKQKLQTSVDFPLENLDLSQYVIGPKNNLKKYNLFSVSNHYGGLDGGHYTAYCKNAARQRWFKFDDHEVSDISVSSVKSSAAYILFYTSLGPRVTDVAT
UniProt Q8TED0: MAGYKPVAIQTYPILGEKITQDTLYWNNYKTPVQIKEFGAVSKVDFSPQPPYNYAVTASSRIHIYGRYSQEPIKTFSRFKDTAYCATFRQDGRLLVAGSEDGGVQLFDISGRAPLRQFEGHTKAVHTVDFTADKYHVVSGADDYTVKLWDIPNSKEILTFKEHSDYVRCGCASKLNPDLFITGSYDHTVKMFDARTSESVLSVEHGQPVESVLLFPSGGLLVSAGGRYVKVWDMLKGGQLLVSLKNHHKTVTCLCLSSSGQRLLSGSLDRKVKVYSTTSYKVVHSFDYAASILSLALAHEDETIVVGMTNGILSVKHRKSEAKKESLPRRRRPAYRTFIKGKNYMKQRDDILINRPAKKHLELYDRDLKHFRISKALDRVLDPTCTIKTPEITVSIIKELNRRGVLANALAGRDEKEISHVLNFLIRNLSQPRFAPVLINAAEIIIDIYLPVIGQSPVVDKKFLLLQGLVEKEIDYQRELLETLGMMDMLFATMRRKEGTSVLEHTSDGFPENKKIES
UniProt Q53GS9: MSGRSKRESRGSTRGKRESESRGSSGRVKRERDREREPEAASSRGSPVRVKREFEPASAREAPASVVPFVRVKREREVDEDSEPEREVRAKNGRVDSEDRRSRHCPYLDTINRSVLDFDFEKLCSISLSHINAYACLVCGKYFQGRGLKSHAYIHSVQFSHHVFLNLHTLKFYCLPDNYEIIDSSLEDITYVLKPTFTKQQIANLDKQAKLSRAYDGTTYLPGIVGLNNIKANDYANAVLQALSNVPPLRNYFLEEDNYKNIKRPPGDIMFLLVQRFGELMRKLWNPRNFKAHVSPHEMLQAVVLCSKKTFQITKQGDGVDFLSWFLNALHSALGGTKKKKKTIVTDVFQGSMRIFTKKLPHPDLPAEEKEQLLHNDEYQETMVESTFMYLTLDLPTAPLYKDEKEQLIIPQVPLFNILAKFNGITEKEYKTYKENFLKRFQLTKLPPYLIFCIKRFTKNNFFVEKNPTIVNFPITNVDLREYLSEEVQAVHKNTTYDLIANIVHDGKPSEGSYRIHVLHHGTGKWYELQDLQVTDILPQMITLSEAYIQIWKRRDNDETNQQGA
UniProt O95071: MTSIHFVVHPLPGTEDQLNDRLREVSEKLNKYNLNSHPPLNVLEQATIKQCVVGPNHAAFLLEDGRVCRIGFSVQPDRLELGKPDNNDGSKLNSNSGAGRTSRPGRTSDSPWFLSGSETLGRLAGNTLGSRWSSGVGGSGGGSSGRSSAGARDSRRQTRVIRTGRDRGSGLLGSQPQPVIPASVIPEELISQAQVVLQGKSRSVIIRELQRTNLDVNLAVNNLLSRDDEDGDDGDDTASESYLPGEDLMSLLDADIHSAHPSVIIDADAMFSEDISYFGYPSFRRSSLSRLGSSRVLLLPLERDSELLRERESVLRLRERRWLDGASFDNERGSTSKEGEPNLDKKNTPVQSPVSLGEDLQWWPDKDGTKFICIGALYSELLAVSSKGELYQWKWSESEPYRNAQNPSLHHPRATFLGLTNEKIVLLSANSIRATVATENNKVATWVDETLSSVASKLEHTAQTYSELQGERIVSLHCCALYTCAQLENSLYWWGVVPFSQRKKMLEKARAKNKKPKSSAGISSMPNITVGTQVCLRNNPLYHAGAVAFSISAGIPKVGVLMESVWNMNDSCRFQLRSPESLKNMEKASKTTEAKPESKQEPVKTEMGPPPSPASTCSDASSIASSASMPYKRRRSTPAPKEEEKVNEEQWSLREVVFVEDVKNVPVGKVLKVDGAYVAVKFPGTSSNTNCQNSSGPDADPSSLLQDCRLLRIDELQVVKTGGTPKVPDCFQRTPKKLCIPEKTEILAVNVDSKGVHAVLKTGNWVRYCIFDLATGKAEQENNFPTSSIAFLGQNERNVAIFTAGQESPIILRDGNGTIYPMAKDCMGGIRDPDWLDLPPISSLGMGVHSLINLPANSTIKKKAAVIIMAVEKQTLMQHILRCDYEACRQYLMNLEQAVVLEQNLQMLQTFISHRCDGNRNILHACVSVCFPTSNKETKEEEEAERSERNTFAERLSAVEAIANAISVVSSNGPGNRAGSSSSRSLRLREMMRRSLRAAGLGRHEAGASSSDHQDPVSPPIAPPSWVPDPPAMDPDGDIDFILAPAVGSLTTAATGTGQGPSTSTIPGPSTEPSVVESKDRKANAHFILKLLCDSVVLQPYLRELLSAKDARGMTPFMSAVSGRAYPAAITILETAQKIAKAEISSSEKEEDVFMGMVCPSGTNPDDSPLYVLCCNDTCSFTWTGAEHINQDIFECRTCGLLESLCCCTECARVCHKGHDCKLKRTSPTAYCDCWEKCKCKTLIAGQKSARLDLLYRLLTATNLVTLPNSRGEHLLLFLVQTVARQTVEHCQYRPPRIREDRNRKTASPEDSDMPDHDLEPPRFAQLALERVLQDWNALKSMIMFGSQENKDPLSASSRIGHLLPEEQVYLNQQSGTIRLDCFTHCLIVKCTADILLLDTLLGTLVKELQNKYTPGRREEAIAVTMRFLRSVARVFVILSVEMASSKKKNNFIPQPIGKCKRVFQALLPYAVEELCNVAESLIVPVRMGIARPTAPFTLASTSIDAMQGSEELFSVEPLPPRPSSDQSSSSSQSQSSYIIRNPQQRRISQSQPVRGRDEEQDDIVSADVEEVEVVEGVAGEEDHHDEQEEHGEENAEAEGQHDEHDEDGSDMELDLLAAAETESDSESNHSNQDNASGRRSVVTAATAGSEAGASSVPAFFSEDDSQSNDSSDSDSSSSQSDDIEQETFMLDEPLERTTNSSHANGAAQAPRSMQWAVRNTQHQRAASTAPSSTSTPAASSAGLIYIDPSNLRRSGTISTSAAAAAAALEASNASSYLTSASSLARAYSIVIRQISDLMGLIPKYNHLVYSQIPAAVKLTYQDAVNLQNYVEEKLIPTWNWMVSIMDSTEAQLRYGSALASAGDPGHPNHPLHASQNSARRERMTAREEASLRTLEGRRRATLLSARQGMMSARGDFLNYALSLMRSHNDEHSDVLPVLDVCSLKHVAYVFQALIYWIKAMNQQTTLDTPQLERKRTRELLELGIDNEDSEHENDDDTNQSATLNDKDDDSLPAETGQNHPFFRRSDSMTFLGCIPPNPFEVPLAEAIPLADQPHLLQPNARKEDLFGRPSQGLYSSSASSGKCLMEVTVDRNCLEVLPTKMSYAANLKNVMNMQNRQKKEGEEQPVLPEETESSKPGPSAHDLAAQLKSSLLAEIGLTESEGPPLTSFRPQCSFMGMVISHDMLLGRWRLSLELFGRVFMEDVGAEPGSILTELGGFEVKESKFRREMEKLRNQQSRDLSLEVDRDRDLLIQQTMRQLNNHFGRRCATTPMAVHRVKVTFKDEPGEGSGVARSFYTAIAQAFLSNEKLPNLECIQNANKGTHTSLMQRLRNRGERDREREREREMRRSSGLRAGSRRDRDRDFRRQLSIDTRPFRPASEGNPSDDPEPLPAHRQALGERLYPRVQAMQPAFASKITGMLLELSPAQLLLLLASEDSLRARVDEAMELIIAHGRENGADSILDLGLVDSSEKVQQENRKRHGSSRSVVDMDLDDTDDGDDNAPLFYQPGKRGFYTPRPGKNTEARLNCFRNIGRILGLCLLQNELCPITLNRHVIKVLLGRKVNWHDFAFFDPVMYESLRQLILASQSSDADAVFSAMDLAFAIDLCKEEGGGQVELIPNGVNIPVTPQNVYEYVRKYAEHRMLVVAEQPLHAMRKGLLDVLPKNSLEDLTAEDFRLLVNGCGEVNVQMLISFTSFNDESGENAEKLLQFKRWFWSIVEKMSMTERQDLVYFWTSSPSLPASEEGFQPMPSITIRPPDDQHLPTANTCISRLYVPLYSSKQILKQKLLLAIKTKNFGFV
UniProt Q9NWZ5: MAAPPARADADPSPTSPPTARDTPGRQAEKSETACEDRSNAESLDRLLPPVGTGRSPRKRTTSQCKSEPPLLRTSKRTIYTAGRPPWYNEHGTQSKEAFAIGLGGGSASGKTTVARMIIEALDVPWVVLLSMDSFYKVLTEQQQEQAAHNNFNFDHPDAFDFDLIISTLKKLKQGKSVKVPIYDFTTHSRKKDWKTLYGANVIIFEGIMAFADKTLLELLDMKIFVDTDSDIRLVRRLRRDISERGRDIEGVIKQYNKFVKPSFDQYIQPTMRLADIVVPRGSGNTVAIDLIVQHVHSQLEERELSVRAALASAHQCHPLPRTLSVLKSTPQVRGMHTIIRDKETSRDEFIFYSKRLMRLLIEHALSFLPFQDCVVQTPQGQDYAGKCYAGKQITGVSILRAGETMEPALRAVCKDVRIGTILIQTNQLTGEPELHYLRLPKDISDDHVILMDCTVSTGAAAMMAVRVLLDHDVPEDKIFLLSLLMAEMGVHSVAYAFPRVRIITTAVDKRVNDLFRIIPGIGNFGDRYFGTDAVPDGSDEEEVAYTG
UniProt Q9HA47: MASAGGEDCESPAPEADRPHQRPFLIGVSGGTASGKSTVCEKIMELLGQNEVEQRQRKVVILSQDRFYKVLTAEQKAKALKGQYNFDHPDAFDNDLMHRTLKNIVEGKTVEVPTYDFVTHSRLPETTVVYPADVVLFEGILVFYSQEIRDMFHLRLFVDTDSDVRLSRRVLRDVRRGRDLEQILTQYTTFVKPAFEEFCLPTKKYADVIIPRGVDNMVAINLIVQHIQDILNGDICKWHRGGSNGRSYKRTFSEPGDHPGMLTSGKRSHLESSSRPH

This is one part of the list.

Compound in the assay: C1=CC=C(C=C1)[C@H](COC2=CC3=C(C=C2)NC(=O)N3)NC(=O)C4=CC=CN(C4=O)CC5=CC(=C(C=C5)F)F
Nature of the assay: log2 fold change, soluble protein after heating vs DMSO (PISA); higher = thermal stabilisation; K562 cells, 10 uM, 30 min; active = over 0.2 and 3.5 SD of the protein, either way, in both replicates (recomputed). A digest of the protocol:
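K562 cells at 2×10^6 cells/mL were exposed to 10 μM compound for 30 min, then aliquots were heated for 3 min across 48°C-58°C, pooled, and extracted in PBS containing 0.5% NP-40 at 4°C. The supernatant after 21,000xg for 90 min was taken as soluble protein and measured by TMTpro 16plex LC-MS/MS with channel sums equalised. Thermal stability is reported relative to control samples, with values from duplicates. Fold changes are given on a log2 scale.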
As for VBP1 (UniProt P61758), the log2 fold change is inactive: 0.019.
Take UBE3C (UniProt Q15386): the log2 fold change was inactive: 0.
With UNC119B (UniProt A6NIH7) the figure was inactive: -0.093; with USP25 isoform 3 (UniProt Q9UHP3), inactive: -0.02.
With UQCR10 (UniProt Q9UDW1) the figure was inactive: -0.032; with USP5 (UniProt P45974), inactive: -0.006; with UIMC1 (UniProt Q96RL1), inactive: 0.073.
Then USP8 (UniProt P40818), with inactive: -0.065; and USP24 (UniProt Q9UPU5), with inactive: 0.114; and USP48 isoform 8 (UniProt Q86UV5), with inactive: -0.073.
As to USE1 (UniProt Q9NZ43), the log2 fold change is inactive: -0.05.
With UBXN4 (UniProt Q92575) the figure was inactive: -0.06.
Then UFM1 isoform 2 (UniProt P61960), with inactive: -0.032; and UNC45A (UniProt Q9H3U1), with inactive: -0.069.
With UTP15 (UniProt Q8TED0) the figure was inactive: 0.095.
Take USP39 (UniProt Q53GS9): the log2 fold change was inactive: 0.005.
With VANGL1 (UniProt Q8TAA9) the figure was inactive: -0.012; with VAMP4 (UniProt O75379), inactive: 0.042.
With UBR5 (UniProt O95071) the figure was inactive: 0.051; with UQCRC2 (UniProt P22695), inactive: 0.047.
With USP22 (UniProt Q9UPT9) the figure was inactive: -0.105; with UNK (UniProt Q9C0B0), inactive: 0.045.
UBXN10 (UniProt Q96LJ8): the log2 fold change is inactive: 0.011.
With UXT isoform 2 (UniProt Q9UBK9) the figure was inactive: 0.046; with UBQLN4 (UniProt Q9NRR5), inactive: 0.001; with UCKL1 (UniProt Q9NWZ5), inactive: -0.067.
Then VAPA isoform 2 (UniProt Q9P0L0), with inactive: -0.002; and UBFD1 (UniProt O14562), with inactive: -0.009.
With VAMP2 (UniProt P63027) the figure was inactive: 0.048; with UBE4B isoform 4 (UniProt O95155), inactive: -0.019.
Take UBE3D (UniProt Q7Z6J8): the log2 fold change was inactive: 0.034.
With UGGT1 (UniProt Q9NYU2) the figure was inactive: 0.032; with UBR7 (UniProt Q8N806), inactive: -0.02.
Then UQCC2 (UniProt Q9BRT2), with inactive: 0.024; and UGDH (UniProt O60701), with inactive: 0.025.
Take UCK1 (UniProt Q9HA47): the log2 fold change was inactive: -0.035.
Regarding UTP4 (UniProt Q969X6), the log2 fold change is inactive: 0.009.
Then USP10 isoform 2 (UniProt Q14694), with inactive: 0.023.
